From patent US20120041006A1, “Compositions for Raising Uric Acid Levels and Methods of Using the Same” (priority 1998, published 2012)
Some results were stated once for a whole list of compounds, not compound by compound.

Experiment: Oral uric acid precursor in a person with Alzheimer's
Type: in vivo, human
Conditions: one Alzheimer's patient; baseline 4.5 mg/100 ml blood; 500-1,000 mg orally per day; within 14 days

OC[C@H]1O[C@@H](n2cnc3c(O)ncnc32)[C@H](O)[C@@H]1O [inosine]
uric acid level: 7.5-8.5 mg/100 ml blood
